Reference: the supplement of paper PMC10849652
The other results are listed elsewhere or left out. Residues, ends and D or L forms follow the SMILES beside them. *: point of attachment. Cbz = O=C(OCc1ccccc1)*

By UniProt entry, the sequences of proteins in these tests, tags left out. Where a name states a change or a piece, a line headed by the entry shows the natural chain unless it says otherwise.
UniProt O75056, whole entry, looked up: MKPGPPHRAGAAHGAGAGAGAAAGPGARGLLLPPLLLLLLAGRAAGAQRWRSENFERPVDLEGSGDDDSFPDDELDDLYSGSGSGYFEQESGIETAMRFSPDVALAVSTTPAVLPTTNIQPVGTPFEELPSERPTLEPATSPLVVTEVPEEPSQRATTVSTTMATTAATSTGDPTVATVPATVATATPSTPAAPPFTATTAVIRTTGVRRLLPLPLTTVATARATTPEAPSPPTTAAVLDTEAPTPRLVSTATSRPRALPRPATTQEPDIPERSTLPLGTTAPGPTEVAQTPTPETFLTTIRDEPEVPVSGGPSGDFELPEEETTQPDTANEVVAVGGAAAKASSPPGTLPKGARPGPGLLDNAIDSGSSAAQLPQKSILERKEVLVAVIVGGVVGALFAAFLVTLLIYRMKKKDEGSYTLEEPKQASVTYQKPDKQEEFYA
UniProt Q96EU6: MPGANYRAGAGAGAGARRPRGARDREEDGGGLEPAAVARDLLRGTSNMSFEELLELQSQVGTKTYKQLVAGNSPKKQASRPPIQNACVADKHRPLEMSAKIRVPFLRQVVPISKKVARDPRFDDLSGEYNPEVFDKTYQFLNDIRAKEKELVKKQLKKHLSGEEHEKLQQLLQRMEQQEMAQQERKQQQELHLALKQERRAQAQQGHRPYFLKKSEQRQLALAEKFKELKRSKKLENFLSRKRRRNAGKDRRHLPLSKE
UniProt Q6UWP8: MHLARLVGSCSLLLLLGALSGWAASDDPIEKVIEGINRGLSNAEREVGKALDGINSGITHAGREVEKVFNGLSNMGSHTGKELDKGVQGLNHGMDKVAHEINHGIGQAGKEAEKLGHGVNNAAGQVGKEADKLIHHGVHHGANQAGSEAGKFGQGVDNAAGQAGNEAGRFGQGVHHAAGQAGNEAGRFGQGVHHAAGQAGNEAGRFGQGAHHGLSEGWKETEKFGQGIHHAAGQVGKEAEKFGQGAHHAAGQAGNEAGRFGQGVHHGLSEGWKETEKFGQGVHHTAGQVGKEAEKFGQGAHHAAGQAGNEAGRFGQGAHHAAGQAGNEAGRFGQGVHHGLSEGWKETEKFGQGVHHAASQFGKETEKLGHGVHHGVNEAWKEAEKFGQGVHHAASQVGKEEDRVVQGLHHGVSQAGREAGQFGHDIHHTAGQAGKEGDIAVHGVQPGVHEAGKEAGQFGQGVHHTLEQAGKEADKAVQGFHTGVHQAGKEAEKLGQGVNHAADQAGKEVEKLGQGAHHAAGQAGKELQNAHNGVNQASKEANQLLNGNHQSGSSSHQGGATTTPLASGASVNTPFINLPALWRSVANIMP
UniProt Q7L3V2: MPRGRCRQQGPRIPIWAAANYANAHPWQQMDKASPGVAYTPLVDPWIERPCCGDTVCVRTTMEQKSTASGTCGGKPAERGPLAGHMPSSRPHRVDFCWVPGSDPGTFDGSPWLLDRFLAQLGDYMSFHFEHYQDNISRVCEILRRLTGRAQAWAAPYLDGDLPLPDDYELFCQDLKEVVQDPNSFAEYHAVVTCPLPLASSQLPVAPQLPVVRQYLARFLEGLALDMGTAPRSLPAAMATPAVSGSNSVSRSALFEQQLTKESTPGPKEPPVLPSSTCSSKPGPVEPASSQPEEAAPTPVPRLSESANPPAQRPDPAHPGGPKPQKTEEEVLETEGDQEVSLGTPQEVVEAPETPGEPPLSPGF
UniProt Q86WG5: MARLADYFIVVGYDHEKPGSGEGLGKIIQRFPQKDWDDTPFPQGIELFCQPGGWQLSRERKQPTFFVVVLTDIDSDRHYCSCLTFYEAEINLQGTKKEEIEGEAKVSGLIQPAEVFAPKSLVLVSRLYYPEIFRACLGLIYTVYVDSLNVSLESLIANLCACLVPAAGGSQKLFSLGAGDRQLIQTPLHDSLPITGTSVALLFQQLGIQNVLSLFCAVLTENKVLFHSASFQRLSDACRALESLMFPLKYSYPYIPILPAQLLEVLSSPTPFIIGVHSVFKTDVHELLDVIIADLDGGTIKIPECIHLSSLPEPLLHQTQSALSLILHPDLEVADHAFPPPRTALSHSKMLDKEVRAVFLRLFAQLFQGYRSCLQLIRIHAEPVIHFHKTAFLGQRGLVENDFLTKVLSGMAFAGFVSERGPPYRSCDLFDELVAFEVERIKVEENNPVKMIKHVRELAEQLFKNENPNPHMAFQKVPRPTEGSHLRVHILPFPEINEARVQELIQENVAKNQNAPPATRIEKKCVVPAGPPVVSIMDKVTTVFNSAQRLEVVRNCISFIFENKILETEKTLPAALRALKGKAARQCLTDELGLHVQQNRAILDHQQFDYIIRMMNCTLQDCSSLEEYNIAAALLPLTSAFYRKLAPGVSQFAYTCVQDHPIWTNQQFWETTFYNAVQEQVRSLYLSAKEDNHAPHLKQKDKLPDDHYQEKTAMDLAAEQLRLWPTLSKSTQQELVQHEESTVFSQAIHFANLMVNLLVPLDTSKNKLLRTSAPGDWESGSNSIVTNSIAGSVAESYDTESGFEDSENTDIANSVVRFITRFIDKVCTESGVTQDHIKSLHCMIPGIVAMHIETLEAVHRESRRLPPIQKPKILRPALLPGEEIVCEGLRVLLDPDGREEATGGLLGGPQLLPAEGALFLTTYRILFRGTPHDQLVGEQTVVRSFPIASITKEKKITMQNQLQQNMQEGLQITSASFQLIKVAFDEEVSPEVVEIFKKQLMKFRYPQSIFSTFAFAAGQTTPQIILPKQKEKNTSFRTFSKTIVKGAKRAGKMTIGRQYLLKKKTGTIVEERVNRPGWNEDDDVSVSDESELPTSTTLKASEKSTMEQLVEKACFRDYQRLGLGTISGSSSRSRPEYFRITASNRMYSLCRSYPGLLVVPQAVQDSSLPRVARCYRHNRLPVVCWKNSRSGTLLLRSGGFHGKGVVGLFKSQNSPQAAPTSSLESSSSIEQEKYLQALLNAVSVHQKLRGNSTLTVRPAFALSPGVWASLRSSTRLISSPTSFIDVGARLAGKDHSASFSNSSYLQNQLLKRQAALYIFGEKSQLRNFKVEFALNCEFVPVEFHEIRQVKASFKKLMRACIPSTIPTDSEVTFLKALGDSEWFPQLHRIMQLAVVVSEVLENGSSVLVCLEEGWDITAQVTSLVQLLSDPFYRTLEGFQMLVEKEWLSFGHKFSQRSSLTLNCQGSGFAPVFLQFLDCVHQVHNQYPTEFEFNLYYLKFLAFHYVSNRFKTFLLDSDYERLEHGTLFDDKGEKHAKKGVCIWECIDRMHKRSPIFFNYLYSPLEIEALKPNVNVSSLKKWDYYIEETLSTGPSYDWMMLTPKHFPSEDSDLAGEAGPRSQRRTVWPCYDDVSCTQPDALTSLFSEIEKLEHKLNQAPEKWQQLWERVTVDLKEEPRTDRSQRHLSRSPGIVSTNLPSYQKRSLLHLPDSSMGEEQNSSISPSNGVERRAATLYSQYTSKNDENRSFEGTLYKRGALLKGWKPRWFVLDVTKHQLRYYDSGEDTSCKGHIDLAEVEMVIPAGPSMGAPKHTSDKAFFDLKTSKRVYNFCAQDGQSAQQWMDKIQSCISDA
UniProt O95969: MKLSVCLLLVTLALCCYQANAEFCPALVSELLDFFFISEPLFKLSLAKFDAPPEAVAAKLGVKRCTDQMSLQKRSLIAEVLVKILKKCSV
UniProt O14521: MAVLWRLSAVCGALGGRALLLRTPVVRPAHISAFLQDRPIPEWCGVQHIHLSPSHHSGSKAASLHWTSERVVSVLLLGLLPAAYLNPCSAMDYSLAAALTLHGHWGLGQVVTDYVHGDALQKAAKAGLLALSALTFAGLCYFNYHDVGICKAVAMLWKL

Columns and labels:
Test in all cases: log2 fold change, soluble protein after heating vs DMSO (PISA); higher = thermal stabilisation; K562 cells, 10 uM, 30 min; active = over 0.2 and 3.5 SD of the protein, either way, in both replicates (recomputed)
[1] = compound: C=CC(=O)N1CCC[C@@H](n2nc(-c3ccc(Oc4ccccc4)cc3)c3c(N)ncnc32)C1 [ibrutinib]
Method in brief: (§1)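 For each measurement, 10 μM compound was applied for 30 min to K562 cells at 2×10^6 cells/mL. Aliquots were heated for 3 min across 48°C-58°C, pooled, and extracted in PBS with 0.5% NP-40 at 4°C; the supernatant after 21,000xg for 90 min was soluble protein. This was quantified by TMTpro 16plex LC-MS/MS with channel sums equalised, and thermal stability was reported relative to control samples from duplicates, on a log2 fold-change scale.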

[2] = compound: CC(=O)c1cnc2ccc(-c3cc(Cl)c(O)c(Cl)c3)nc2c1N[C@H]1CC[C@H](CN(C)C)CC1
Method in brief: as §1

[3] = compound: CC(C)(C)Cn1c(N)nc2ccc(-c3[nH]c(C(C)(C)C)nc3-c3ccc(F)cc3)nc21 [ralimetinib]
Method in brief: as §1

[4] = compound: CC(C)(O)CC(=O)NCCn1ccc2ncnc(Nc3ccc(Oc4cccc(C(F)(F)F)c4)c(Cl)c3)c21
Method in brief: as §1

[5] = compound: CC(C)C1=C2N=C(C=C(N2N=C1)NCC3=CC=CC=C3)NCCCCCCN
Method in brief: as §1

[6] = compound: CC(C)C[C@@H](C=O)NC(=O)[C@H](CC(C)C)NC(=O)[C@H](CC(C)C)NC(=O)OCc1ccccc1
Method in brief: as §1

[7] = compound: CC1=C(C(CC(=O)N1)C2=CC=C(C=C2)C(F)(F)F)C(=O)NC3=C(C=C4C(=C3)C=NN4)F
Method in brief: as §1

[8] = compound: CC1=C(C2=C(C=C1)C(=O)C3=CC=CC=C3N2CCCN)C
Method in brief: as §1

[9] = compound: CC1=C(C=C(C=C1)NC(=O)C2=CC(=CC=C2)C(C)(C)C#N)NC3=CC4=C(C=C3)N=CN(C4=O)C
Method in brief: as §1

[10] = compound: CC1=C(C=C(C=C1)NC(=O)C2=CC(=CC=C2)N(C)C)NC(=O)C3=CC=C(C=C3)O
Method in brief: as §1

[11] = compound: CCCCN(Cc1ccc(C(=O)NO)cc1)C(=O)Nc1ccccc1 [Nexturastat A]
Method in brief: as §1

[12] = compound: CCCS(=O)(=O)Nc1ccc(F)c(C(=O)c2c[nH]c3ncc(-c4ccc(Cl)cc4)cc23)c1F [vemurafenib]
Method in brief: as §1

[13] = compound: CCCc1cc(C)[nH]c(=O)c1CNC(=O)c1cc(-c2ccnc(N3CCN(C)CC3)c2)cc2c1cnn2C(C)C
Method in brief: as §1

[14] = compound: CCN(CC)Cc1ccc2cc(COC(=O)Nc3ccc(C(=O)NO)cc3)ccc2c1 [givinostat]
Method in brief: as §1

[15] = compound: CCN(CCCOc1ccc2c(Nc3cc(CC(=O)Nc4cccc(F)c4)[nH]n3)ncnc2c1)CCOP(=O)(O)O [barasertib]
Method in brief: as §1

[16] = compound: CC1=CC=C(C=C1)SC2=C3C=C(SC3=CN=C2)C(=O)N
Method in brief: as §1

[17] = compound: CCCS(=O)(=O)Nc1ccc(F)c(C(=O)c2c[nH]c3ncc(Cl)cc23)c1F
Method in brief: as §1

Measured: log2 fold change

RSL24D1 (UniProt Q9UHA3)
inactive: [1] -0.063 | [2] 0.301 | [3] 0.211 | [4] 0.104 | [5] 0.235 | [6] 0.091 | [7] -0.018 | [8] -0.273 | [9] -0.068 | [10] 0.019 | [11] 0.32 | [12] -0.247 | [13] 0.193 | [14] 0.14 | [15] -0.097

SDC3 (UniProt O75056)
inactive: [2] 0.089 | [4] -0.006 | [8] -0.036 | [9] 0.091 | [11] 0.016 | [12] 0.073

RRP36 (UniProt Q96EU6)
active: [8] -0.785
inactive: [1] 0.045 | [2] 0.122 | [3] 0.083 | [4] 0 | [5] 0.044 | [6] 0.042 | [9] 0.001 | [10] -0.168 | [16] -0.045 | [11] 0.24 | [12] -0.117 | [17] 0.002 | [13] 0.136 | [14] 0 | [15] -0.218

SBSN (UniProt Q6UWP8)
inactive: [2] -0.579 | [7] -0.377 | [13] 0.367

RTL10 (UniProt Q7L3V2)
inactive: [2] -0.2 | [3] -0.053 | [4] -0.302 | [6] 0.227 | [8] 0.055 | [10] 0.266 | [16] 0.06 | [11] 0.083 | [12] 0.037 | [17] -0.056 | [13] -0.358

SBF2 (UniProt Q86WG5)
inactive: [3] 0.179 | [4] 0.029 | [6] -0.006 | [10] 0.02 | [11] -0.051

SCGB1D2 (UniProt O95969)
inactive: [1] 0.039 | [2] 0.026 | [3] -0.156 | [4] -0.07 | [5] -0.098 | [6] -0.304 | [7] -0.5 | [8] 0.786 | [9] -0.116 | [10] -0.034 | [16] 0.269 | [11] -0.037 | [12] -0.193 | [17] -0.343 | [13] 0.513 | [14] 0.206 | [15] 0.185

SDHD (UniProt O14521)
inactive: [1] 0.04 | [2] 0.015 | [3] -0.02 | [4] -0.11 | [5] -0.01 | [6] -0.144 | [7] 0.041 | [8] 0.05 | [9] 0.022 | [10] 0.019 | [16] 0.004 | [11] -0.015 | [12] 0.047 | [17] 0.03 | [13] -0.082 | [14] 0.099 | [15] -0.013

SDHB, A0A087WXX8
inactive: [1] -0.11 | [2] -0.095 | [3] -0.053 | [5] 0.009 | [6] -0.104 | [7] 0.141 | [10] 0.01 | [16] -0.097 | [12] -0.017 | [17] -0.176 | [13] 0.045 | [14] 0.059 | [15] 0.028

Taken from above (two entries):
RTL10 (UniProt Q7L3V2)
inactive: [2] -0.2 | [3] -0.053 | [4] -0.302 | [6] 0.227 | [8] 0.055 | [10] 0.266 | [16] 0.06 | [11] 0.083 | [12] 0.037 | [17] -0.056 | [13] -0.358

SBF2 (UniProt Q86WG5)
inactive: [3] 0.179 | [4] 0.029 | [6] -0.006 | [10] 0.02 | [11] -0.051
